The values below come from patent publication US20260265262A1, “CDK2 INHIBITORS AND METHODS OF USING THE SAME” (Cedilla Therapeutics, Inc., priority 2022, published 2026).

pIC50: −log10 of the molar value. Structures were worked out from names or drawings and are uncertain.

In assay [1] the target is CDK2/Cyclin E1 (Homo sapiens, UniProt P24941). In words: ADP-Glo Luminescent Kinase Assay (CDK2/E1-37C). It is filed as biochemical. The note with it: read-out: ADPGLO (CDK2/E1-37C): IC50; 0.18 nM CDK2/Cyclin E1, 100 μM ATP, 1.5 μM Histone H1, 37° C., 60 min pre-incubation. How it is done:
Inhibition of CDK2/Cyclin E1 activity by the presence of small molecules was evaluated using ADP-Glo Luminescent Kinase Assay (Promega). Activated CDK2/Cyclin E1 was incubated with its substrate Histone H1 (SignalChem H10-54N) in the kinase reaction buffer (100 μM ATP, 50 mM HEPES pH 7.5, 10 mM MgCl2, 1 mM EDTA, 2 mM DTT, 0.01% Brij35, 0.5 mg/mL BSA). Luminescence was recorded with an Envision plate reader (PerkinElmer).
Dose titrations of inhibitors in 100% DMSO were combined with 0.36 nM CDK2/Cyclin E1 in reaction buffer. The mixtures were incubated for 60 minutes at 37° C. before the addition of ATP and Histone H1 substrate to initiate the kinase reaction. The final conditions were 0.18 nM CDK2/Cyclin E1, 100 μM ATP, and 1.5 μM Histone H1. The reactions were incubated at 37° C. for 90 minutes before being stopped with the addition of ADP-Glo reagent. This mixture was incubated at room temperature for 60 minutes before Kinase Detection Solution is added to generate luminescence. The stopped reactions were analyzed on an Envision plate reader. The conversion ratios were normalized to yield % activity, plotted against compound concentration, and fit to a four-parameter equation to determine the IC50 for each compound.

The subject of assay [2] is Kuramochi cells. As to the kind of experiment: IncuCyte cell proliferation assay. The note with it: read-out: IncuCyte Kuramochi RB-WT: IC50; Kuramochi cells labeled with mApple-H2B, cell count 0 to 72 hours, 20 μM top concentration. Format: cell-based. Here is the method:
IncuCyte® assay was used to measure the effect of disclosed compounds on cell proliferation. Fluorescent microscopy images of cells were taken immediately after compound treatment and 72 hours later. Image analysis software was used to obtain cell counts as a function of compound concentration. Kuramochi cells labeled with mApple-H2B were seeded on 384-well assay-ready plates. Plates were placed in an IncuCyte® (Sartorius) and scanned at 0 and 72 hours. IncuCyte® software was used to count the number of fluorescent nuclei in each well. The fold change in cell count from 0 to 72 hours in wells treated with increasing compounds concentrations (10 pts, 1/2 log dilution, 20 μM top concentration) was normalized to DMSO control wells. The normalized cell counts were fit with dose response curves and a […] was calculated.

Regarding `COC(=O)c1ccccc1C1CCN(C(=O)[C@@H](NC(=O)[C@@H]2CN(C(=O)c3cnn(CC4CCN(C(=O)OC(C)(C)C)CC4)c3)CC23CN(C(=O)C2(C(F)(F)F)CC2)C3)[C@@H](C)OCC23CCC(CC2)OC3)CC1`, the pIC50 was 5.30 to 6.30 in assay [1] and 4.70 to 5.30 in assay [2].
Regarding `C[C@@H](OCC12CCC(CC1)OC2)[C@H](NC(=O)[C@@H]1CN(C(=O)c2cnn(Cc3ccc(C(F)(F)F)cc3)c2)CC12CN(C(=O)C1(C(F)(F)F)CC1)C2)C(=O)N1CCC(c2nnn[nH]2)CC1` [Example I-100], the figures for the pIC50 in assay [1] and in assay [2] were > 6.30 and < 4.70, respectively.
